Data: patent US7855218B2, “Compounds” (Convergence Pharmaceuticals Limited, priority 2005, dated 2010)
Some of these results come from one statement about several compounds together.

Amino acid sequences for entries named in this document (tags omitted).
UniProt Q9NY46, whole entry: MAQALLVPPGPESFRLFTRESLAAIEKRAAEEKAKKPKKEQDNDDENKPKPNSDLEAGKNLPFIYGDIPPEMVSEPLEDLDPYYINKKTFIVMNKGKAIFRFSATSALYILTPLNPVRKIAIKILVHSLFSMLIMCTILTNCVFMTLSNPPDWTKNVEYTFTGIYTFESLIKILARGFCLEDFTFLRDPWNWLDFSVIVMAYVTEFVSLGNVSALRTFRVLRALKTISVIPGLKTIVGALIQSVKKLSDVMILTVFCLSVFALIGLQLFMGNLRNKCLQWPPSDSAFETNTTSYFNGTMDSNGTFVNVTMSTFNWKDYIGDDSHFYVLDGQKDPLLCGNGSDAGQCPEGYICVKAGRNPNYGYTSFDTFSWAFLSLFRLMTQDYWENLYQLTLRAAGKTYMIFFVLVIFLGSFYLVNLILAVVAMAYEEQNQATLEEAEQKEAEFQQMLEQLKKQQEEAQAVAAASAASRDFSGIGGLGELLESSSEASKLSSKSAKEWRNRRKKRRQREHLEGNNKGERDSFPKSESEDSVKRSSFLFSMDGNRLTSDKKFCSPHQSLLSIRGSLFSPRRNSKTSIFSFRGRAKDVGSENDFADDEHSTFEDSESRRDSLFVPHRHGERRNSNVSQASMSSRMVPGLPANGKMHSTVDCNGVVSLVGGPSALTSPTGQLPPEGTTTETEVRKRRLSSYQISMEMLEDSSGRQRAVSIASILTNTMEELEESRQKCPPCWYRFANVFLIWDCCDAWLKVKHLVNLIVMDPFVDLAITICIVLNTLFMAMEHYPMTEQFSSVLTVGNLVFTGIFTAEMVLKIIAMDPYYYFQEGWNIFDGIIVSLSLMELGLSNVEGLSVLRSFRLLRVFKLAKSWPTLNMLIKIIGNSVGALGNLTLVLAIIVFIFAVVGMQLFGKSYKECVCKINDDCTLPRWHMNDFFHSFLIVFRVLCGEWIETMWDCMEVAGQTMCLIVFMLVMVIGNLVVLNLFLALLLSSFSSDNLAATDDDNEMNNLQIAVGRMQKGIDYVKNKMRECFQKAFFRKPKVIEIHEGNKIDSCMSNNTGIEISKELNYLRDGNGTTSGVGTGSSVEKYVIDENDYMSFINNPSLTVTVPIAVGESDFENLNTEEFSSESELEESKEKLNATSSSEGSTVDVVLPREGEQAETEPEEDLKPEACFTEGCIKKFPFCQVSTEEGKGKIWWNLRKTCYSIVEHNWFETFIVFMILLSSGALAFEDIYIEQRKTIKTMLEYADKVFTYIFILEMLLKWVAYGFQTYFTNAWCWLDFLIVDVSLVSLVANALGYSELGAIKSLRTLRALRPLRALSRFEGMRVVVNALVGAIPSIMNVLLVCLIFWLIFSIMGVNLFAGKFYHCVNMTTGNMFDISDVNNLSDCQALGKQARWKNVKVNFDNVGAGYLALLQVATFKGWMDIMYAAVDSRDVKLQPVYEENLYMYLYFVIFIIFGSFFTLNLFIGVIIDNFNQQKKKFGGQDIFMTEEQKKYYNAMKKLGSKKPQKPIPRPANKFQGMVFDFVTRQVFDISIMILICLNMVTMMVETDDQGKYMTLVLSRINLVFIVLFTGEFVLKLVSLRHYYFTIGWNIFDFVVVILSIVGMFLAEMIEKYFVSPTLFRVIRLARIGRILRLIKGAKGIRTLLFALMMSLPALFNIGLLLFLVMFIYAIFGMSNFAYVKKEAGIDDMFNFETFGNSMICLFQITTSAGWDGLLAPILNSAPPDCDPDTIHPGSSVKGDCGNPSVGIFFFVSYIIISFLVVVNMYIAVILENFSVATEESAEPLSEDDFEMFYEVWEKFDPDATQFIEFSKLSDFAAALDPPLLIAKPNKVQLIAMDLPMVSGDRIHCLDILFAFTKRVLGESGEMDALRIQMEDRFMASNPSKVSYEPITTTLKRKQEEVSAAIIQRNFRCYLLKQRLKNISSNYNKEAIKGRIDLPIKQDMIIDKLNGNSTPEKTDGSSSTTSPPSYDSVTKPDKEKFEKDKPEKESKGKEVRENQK

target: T1, hNaV1.3 channels (Homo sapiens, UniProt Q9NY46); assay: Na channel assay (IonWorksHT planar array electrophysiology); format: cell-based; conditions: concentration producing 15% use-dependent inhibition; 10th versus 1st depolarising pulse, -90 mV to 0 mV, 10 Hz; CHO cells expressing hNaV1.3
T1 construct: expressed in transfected cells

Compound | use-dependent pUD15
Cl.O=C1NC[C@H]2C[C@H](c3ccc(OCc4ccccc4F)cc3)N[C@@H]12 (racemic) [Example 30, rac-(2R,3aR,6aR)-2-(4-{[2-fluorophenyl)methyl]oxy}phenyl)hexahydropyrrolo[3,4-b]pyrrol-6(1H)-one hydrochloride] | ≥ 4.5
NC(=O)C1CCCC(c2ccc(OCc3cccc(F)c3)cc2)N1 (single isomer, unassigned) [Example 1, (2.6)-6-(4-{[(3-Fluorophenyl)methyl]oxy}phenyl)-2-piperidinecarboxamide] | ≥ 4.5
Cl.NC(=O)[C@@H]1CC[C@H](c2ccc(OCc3ccccc3)cc2)N1 [Example 3, (5R)-5-{4-[(Phenylmethyl)oxy]phenyl}-L-prolinamide hydrochloride] | ≥ 4.5
NC(=O)[C@@H]1CC[C@H](c2ccc(OCc3cccc(F)c3)cc2)N1 [Example 6, (5R)-5-(4-{[(3-fluorophenyl)methyl]oxy}phenyl)-L-prolinamide] | ≥ 4.5
N#Cc1cccc(COc2ccc([C@H]3CC[C@@H](C(N)=O)N3)cc2)c1 [Example 7, (5R)-5-(4-{[(3-cyanophenyl)methyl]oxy}phenyl)-L-prolinamide] | ≥ 4.5
NC(=O)[C@@H]1CC[C@H](c2ccc(OCc3ccc(F)cc3)cc2)N1 [Example 8, (5R)-5-(4-{[(4-fluorophenyl)methyl]oxy}phenyl)-L-prolinamide] | ≥ 4.5
N#Cc1ccccc1COc1ccc([C@H]2CC[C@@H](C(N)=O)N2)cc1 [Example 9, (5R)-5-(4-{[(2-cyanophenyl)methyl]oxy}phenyl)-L-prolinamide] | ≥ 4.5
N#Cc1ccc(COc2ccc([C@H]3CC[C@@H](C(N)=O)N3)cc2)cc1 [Example 10, (5R)-5-(4-{[(4-cyanophenyl)methyl]oxy}phenyl)-L-prolinamide] | ≥ 4.5
NC(=O)[C@@H]1CC[C@H](c2ccc(OCc3ccccc3OC(F)(F)F)cc2)N1 [Example 11, (5R)-5-{4-[({2-[(trifluoromethyl)oxy]phenyl}methyl)oxy]phenyl}-L-prolinamide] | ≥ 4.5
C[C@@H](Oc1ccc([C@H]2CC[C@@H](C(N)=O)N2)cc1)c1ccccc1 [Example 12, (5R)-5-(4-{[(1R)-1-phenylethyl]oxy}phenyl)-L-prolinamide] | ≥ 4.5
NC(=O)[C@@H]1CC[C@H](c2ccc(Oc3ccc(F)cc3)cc2)N1 [Example 13, (5R)-5-{4-[(4-fluorophenyl)oxy]phenyl}-L-prolinamide] | ≥ 4.5
N#Cc1ccc(Oc2ccc([C@H]3CC[C@@H](C(N)=O)N3)cc2)cc1 [Example 14, (5R)-5-{4-[(4-cyanophenyl)oxy]phenyl}-L-prolinamide] | ≥ 4.5
NC(=O)[C@@H]1CC[C@H](c2ccc(Oc3ccccc3)cc2)N1 [Example 15, (5R)-5-[4-(phenyloxy)phenyl]-L-prolinamide] | ≥ 4.5
NC(=O)[C@@H]1CC[C@H](c2ccc(Oc3cccc(F)c3)cc2)N1 [Example 16, (5R)-5-{4-[(3-fluorophenyl)oxy]phenyl}-L-prolinamide] | ≥ 4.5
N#Cc1ccccc1Oc1ccc([C@H]2CC[C@@H](C(N)=O)N2)cc1 [Example 17, (5R)-5-{4-[(2-cyanophenyl)oxy]phenyl}-L-prolinamide] | ≥ 4.5
NC(=O)[C@@H]1CC[C@@H](c2ccc(OCc3ccccc3)cc2)N1 [Example 18, (5S)-5-{4-[(phenylmethyl)oxy]phenyl}-L-prolinamide] | ≥ 4.5
Cl.NC(=O)[C@H]1CC[C@@H](c2ccc(OCc3ccccc3)cc2)N1 [Example 20, (5S)-5-{4-[(Phenylmethyl)oxy]phenyl}-D-prolinamide hydrochloride] | ≥ 4.5
Cl.NC(=O)[C@@H]1CC[C@H](c2ccc(OCc3ccccc3F)cc2F)N1 [Example 23, (5R)-5-(2-fluoro-4-{[(2-fluorophenyl)methyl]oxy}phenyl)-L-prolinamide hydrochloride] | ≥ 4.5
Cl.NC(=O)[C@@H]1CC[C@H](c2cccc(OCc3ccccc3)c2)N1 [Example 24, (5R)-5-{3-[(phenylmethyl)oxy]phenyl}-L-prolinamide hydrochloride] | ≥ 4.5
COc1cc([C@H]2CC[C@@H](C(N)=O)N2)ccc1OCc1ccccc1F.Cl [Example 25, (5R)-5-[4-{[(2-fluorophenyl)methyl]oxy}-3-(methyloxy)phenyl]-L-prolinamide hydrochloride] | ≥ 4.5
Cl.NC(=O)[C@@H]1CC[C@H](c2ccc(NCc3ccccc3F)cc2)N1 [Example 26, (5R)-5-(4-{[(2-fluorophenyl)methyl]amino}phenyl)-L-prolinamide hydrochloride] | ≥ 4.5
Cl.N#Cc1cc([C@H]2CC[C@@H](C(N)=O)N2)ccc1OCc1ccccc1F [Example 27, (5R)-5-(3-cyano-4-{[(2-fluorophenyl)methyl]oxy}phenyl)-L-prolinamide hydrochloride] | ≥ 4.5
Cl.NC(=O)[C@@H]1CC[C@H](c2ccc(CCc3ccccc3)cc2)N1 [Example 28, (5R)-5-[4-(2-phenylethyl)phenyl]-L-prolinamide hydrochloride] | ≥ 4.5
Cl.NC(=O)[C@@H]1CC[C@H](c2ccc(OCc3ccccc3F)cn2)N1 [Example 29, (5R)-5-(5-{[(2-fluorophenyl)methyl]oxy}-2-pyridinyl)-L-prolinamide hydrochloride] | ≥ 4.5
CNC(=O)[C@@H]1CC[C@H](c2ccc(OCc3ccccc3F)cc2)N1.Cl [Example 31, (5R)-5-(4-{[(2-fluorophenyl)methyl]oxy}phenyl)-N-methyl-L-prolinamide hydrochloride] | ≥ 4.5
CN(C)C(=O)[C@@H]1CC[C@H](c2ccc(OCc3ccccc3F)cc2)N1.Cl [Example 32, (5R)-5-(4-{[(2-fluorophenyl)methyl]oxy}phenyl)-N,N-dimethyl-L-prolinamide hydrochloride] | ≥ 4.5
